Holding throughout (assay): co-IP; lysates of co-transfected S2 cells (1% NP-40, 20 mM Tris-HCl pH 8.0, 150 mM NaCl, 2 mM EDTA); Flag antibody-conjugated beads, 2-2.5 hours at 4 °C, washes with lysis buffer; Western blot with anti-Myc-HRP or anti-HA-HRP
The target of experiment [1] is T1, Drosophila Gcm (Glial Cells Missing), 3xFlag-tagged (Drosophila) (UniProt Q27403).
T1 sequence: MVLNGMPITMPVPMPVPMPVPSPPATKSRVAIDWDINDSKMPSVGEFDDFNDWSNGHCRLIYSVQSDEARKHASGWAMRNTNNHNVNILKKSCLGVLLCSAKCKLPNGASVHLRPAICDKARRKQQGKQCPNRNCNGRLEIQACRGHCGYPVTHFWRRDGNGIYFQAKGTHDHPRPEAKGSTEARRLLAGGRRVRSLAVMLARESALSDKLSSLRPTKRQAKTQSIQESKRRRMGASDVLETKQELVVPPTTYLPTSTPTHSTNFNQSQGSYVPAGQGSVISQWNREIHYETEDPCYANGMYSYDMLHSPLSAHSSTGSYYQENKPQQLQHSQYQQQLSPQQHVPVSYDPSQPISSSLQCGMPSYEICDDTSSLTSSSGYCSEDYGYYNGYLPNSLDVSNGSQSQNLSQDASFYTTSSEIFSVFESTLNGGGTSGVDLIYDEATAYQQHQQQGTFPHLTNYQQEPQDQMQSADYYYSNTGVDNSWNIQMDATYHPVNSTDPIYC

The chains behind the UniProt entries cited, without tags or fusion partners.
UniProt P05130: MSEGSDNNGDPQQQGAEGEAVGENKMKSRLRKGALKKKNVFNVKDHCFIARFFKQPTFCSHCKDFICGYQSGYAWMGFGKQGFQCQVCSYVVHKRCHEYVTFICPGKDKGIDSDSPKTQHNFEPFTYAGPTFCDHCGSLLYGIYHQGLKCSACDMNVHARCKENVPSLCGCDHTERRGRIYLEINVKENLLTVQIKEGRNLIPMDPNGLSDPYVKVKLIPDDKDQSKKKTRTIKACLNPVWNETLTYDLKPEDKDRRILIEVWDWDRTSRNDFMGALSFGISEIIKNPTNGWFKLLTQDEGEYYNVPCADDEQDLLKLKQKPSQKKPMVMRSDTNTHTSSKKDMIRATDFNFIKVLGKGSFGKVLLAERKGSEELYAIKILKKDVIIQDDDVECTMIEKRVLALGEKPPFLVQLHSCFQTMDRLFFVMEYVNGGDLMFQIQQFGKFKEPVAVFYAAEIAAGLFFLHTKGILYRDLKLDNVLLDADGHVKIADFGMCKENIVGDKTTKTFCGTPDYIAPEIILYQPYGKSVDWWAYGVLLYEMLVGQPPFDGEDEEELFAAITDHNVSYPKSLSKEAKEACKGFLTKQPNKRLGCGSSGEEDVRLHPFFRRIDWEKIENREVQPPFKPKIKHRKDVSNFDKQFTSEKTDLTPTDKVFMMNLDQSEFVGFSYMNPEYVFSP

Experiment [2] deals with T2, Drosophila Gcm carrying the R59L mutation, 3xFlag-tagged (Drosophila) (UniProt Q27403).
T2 sequence: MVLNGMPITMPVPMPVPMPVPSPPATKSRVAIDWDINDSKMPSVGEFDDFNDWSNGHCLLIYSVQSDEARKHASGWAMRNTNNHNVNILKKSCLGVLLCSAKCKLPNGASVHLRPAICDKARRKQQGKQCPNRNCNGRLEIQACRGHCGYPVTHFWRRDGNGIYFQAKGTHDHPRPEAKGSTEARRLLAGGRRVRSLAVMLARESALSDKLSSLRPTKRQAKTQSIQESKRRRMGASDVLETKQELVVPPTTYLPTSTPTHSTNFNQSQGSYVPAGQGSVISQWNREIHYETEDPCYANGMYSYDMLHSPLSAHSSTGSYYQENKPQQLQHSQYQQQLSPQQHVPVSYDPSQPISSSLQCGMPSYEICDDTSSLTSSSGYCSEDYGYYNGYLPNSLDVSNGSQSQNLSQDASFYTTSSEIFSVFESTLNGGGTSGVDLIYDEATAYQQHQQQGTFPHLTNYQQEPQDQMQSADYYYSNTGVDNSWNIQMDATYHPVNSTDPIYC

The target in experiment [3] is T1, Drosophila Gcm (Glial Cells Missing), 3xFlag-tagged (Drosophila). This is another data set of the same source.
In experiment [4] the target is T2, Drosophila Gcm carrying the R59L mutation, 3xFlag-tagged (Drosophila). This is another data set of the same source.

Like-named read-outs stand apart in the source and are kept apart here. These are yes or no findings as the source states them, for the method shown. In cells and extracts the contact can be indirect. Some results given as binding are weak or reduced against the parent protein; the word gives no strength. Where a sequence is shown, tags or fusion partners need not be part of it.

As for “Drosophila Protein Kinase C PKC53E, 3xHA-tagged (from UniProt P05130 1-679) (enzyme)”, the binding entry in experiment [1] and in experiment [2] was “binds” each time.

B1: F-box protein Supernumerary limbs (Slimb), 6xMyc-tagged (protein, UniProt Q9VDE3 1-510)
chain: MMKMETDKIMDETNSNAQAFTTTMLYDPVRKKDSSPTYQTERELCFQYFTQWSESGQVDFVEHLLSRMCHYQHGQINAYLKPMLQRDFITLLPIKGLDHIAENILSYLDAESLKSSELVCKEWLRVISEGMLWKKLIERKVRTDSLWRGLAERRNWMQYLFKPRPGQTQRPHSFHRELFPKIMNDIDSIENNWRTGRHMLRRINCRSENSKGVYCLQYDDGKIVSGLRDNTIKIWDRTDLQCVKTLMGHTGSVLCLQYDDKVIISGSSDSTVRVWDVNTGEMVNTLIHHCEAVLHLRFNNGMMVTCSKDRSIAVWDMTSPSEITLRRVLVGHRAAVNVVDFDEKYIVSASGDRTIKVWSTSSCEFVRTLNGHKRGIACLQYRDRLVVSGSSDNSIRLWDIECGACLRVLEGHEELVRCIRFDTKRIVSGAYDGKIKVWDLVAALDPRAASNTLCLNTLVEHTGRVFRLQFDEFQIVSSSHDDTILIWDFLNFTPNENKTGRTPSPALMEH
B1: the binding entry in experiment [3] and in experiment [4] was “binds” in each case.

The values above are taken from article PMC5209662.
